The assay can be described thus: qHTS Assay for Lipid Storage Modulators in Drosophila S3 Cells.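 As to cell number change: cells counted by Cell Tracker Red CMTPX staining in the red channel.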 The settings on record: BODIPY lipid droplet fluorescence, 18-24 h; for cell number change: measured here: cell count max response, cells fed with added oleic acid. The method, boiled down:
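Drosophila S3 cells got compounds at several concentrations plus oleic acid (400 uM solution). Laser-scanning cytometry with 488 nm excitation read lipid droplets at 500-530 nm and cells at 575-640 nm. Percent activity was relative to 20 uM Triacsin C.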
(In general: qHTS replaces the single test concentration by a dilution series.)

The mark [1] stands for this setting: measured here: cell number channel AC50, cells fed with added oleic acid.
Where [2] appears, read: measured here: lipid fluorescence (Fed channel) AC50, cells fed with added oleic acid.

The list shows a part of the results. These are further read-outs of the screen, such as a control signal, another cell line or another target. No call is given for them. The list favours compounds with an active or inconclusive main result. Potencies come from curve fits of mixed quality, noted in brackets.

Consider `CCOC(=O)CNC(=O)N1CCCC(N(C)CCc2ccccc2)C1` (stereo not drawn), for which the cell number change worked out at 30.1%. For the same compound, under setting [1], the AC50 is 0.0291 µM [rising, full curve, poor fit].

`O=C(NCc1nc2ccccc2[nH]1)C1=C[C@@H](c2ccccc2)C[C@@H](OCc2ccc(CO)cc2)O1`: the cell number change is -0.265%. In addition, under setting [2], the concentration at half-maximal activity (AC50) was 2.06 µM [rising, full curve, poor fit].

Take `CCOc1ccc(-n2c(=S)sc3c(=O)[nH]c(SCC(=O)N4CCC(C)CC4)nc32)cc1`: the cell number change came to 1.21%. Also, under setting [2], the AC50 is 32.6 µM [falling, single point].

Consider `CCN(CC)CCN(C(=O)CCS(=O)(=O)c1ccccc1)c1nc2cc3c(cc2s1)OCO3`, for which the cell number change was -26.6%.

As to `Cc1ccc(NC(=O)c2ccc(Nc3ccccc3F)nc2)cc1`, the cell number change amounted to 11.6%. The AC50 under setting [1] was 4.61 µM [falling, single point].

As for `C=CCOC(=O)C(C#N)c1nc2ccccc2nc1N1CCN(Cc2ccccc2)CC1` (stereo not drawn), the cell number change stood at 25.4%. The AC50 under setting [2] was 0.58 µM [rising, single point].

Regarding `COc1ccccc1CC(=O)N(CCC1=CCCCC1)c1c(N)n(Cc2ccccc2)c(=O)[nH]c1=O`, the cell number change is -21.7%. For the same compound, the AC50 under setting [1] was 0.00517 µM [falling, full curve, poor fit]. In addition, the AC50 under setting [2] was 2.91 µM [falling, partial curve, poor fit].

For the compound `N/C(=N\OC(=O)CCCOc1ccccc1)c1ccccc1`, the cell number change came out at 15.1%. In addition, the AC50 under setting [2] is 0.103 µM [falling, full curve, poor fit].

`CC(C)(C)C(=O)c1sc(Nc2ccccc2)nc1N`: the cell number change came out at 6.34%. Moreover, under setting [1], the AC50 is 4.11 µM [rising, single point]. In addition, under setting [2], the concentration at half-maximal activity (AC50) is 6.51 µM [rising, partial curve, poor fit].

Regarding `CC(/C=N/NC(=O)Cn1nccc1C)=C\c1ccc(C(C)C)cc1`, the cell number change came to 1.11%. The AC50 under setting [1] is 6.51 µM [falling, single point]. In addition, the AC50 under setting [2] is 29.1 µM [falling, single point].

On to `O=C(O)CN1C(=O)c2cccc(Oc3ccc(Cl)cc3)c2C1=O`, for which the cell number change is -2.42%. Under setting [2], the AC50 is 23.1 µM [falling, single point].

`COc1ccc(NC(=O)CSc2nc3ccccc3c(=O)n2CCCN2CCCCC2)c(OC)c1`: the cell number change was -16.6%.

Take `Cc1ccc(-n2c(=O)[nH]c3c(C(N)=O)nc(-c4ccc(C)o4)nc32)cc1`: the cell number change was -2.64%. The AC50 under setting [2] is 20.6 µM [falling, single point].

With `NNC(=O)c1ccc(-c2cccc([N+](=O)[O-])c2)o1`, the cell number change was 31.3%. For the same compound, the concentration at half-maximal activity (AC50) under setting [1] is 29.1 µM [rising, single point].

Turning to `C#CCOCCOCCOCCNc1nc(N2CCN(C(=O)[C@H](CCCCN)n3cc([C@@H](N)CO)nn3)CC2)nc(N2CCN(C(=O)[C@H](Cc3cc4ccccc4[nH]3)n3cc([C@@H](N)CO)nn3)CC2)n1`, the cell number change stood at 4.42%. Further, the concentration at half-maximal activity (AC50) under setting [2] is 3.26 µM [falling, single point].

Take `Cc1ccc(S(=O)(=O)N/N=C2/CCCCC2C2CCCCC2)cc1[N+](=O)[O-]` (stereo not drawn): the cell number change was -2.82%. For the same compound, under setting [1], the half-maximal activity concentration (AC50) is 0.461 µM [rising, single point]. In addition, the concentration at half-maximal activity (AC50) under setting [2] is 0.00461 µM [falling, full curve].

`Cc1ccc(SCC(=O)OCC(=O)N(CC(C)C)c2c(N)n(Cc3ccccc3)c(=O)[nH]c2=O)cc1C`: the cell number change was found to be 96%. Further, under setting [1], the half-maximal activity concentration (AC50) is 23.1 µM [rising, partial curve].

Regarding `COC(=O)c1ccc(NC(=S)Nc2ccc(O)cc2)cc1`, the cell number change came out at 108%. In addition, the AC50 under setting [1] was 18.4 µM [rising, partial curve]. Further, the AC50 under setting [2] is 23.1 µM [rising, single point].

Consider `CC(C)(C)NC(=O)c1c(F)c(F)c(F)c(F)c1F`, for which the cell number change is -20.4%. Further, under setting [2], the AC50 was 0.184 µM [falling, partial curve, poor fit].

`O=C(CNCc1ccc(Cl)cc1)Nc1ccc(C(=O)N2CCCCC2)cc1`: the cell number change was -3.91%. Further, under setting [2], the AC50 was 29.1 µM [falling, single point].

Take `CC(O)CO` (stereo not drawn): the cell number change was -4.66%. In addition, the concentration at half-maximal activity (AC50) under setting [2] was 1.16 µM [rising, single point].

As to `COc1ccc(CCNC(=O)CCOc2ccc(C)cc2)cc1OC`, the cell number change was -16.7%. Also, the AC50 under setting [2] is 1.64 µM [rising, partial curve].

For `O=C(N/N=C/c1ccc(-c2cccc([N+](=O)[O-])c2)o1)c1ccccc1O`, the cell number change was -10.1%. For the same compound, under setting [1], the half-maximal activity concentration (AC50) is 0.461 µM [rising, single point].

Turning to `Cc1ccc(C(=O)CC2(O)C(=O)N(C)c3ccc(Br)cc32)c(C)c1` (stereo not drawn), the cell number change is -31.4%. Also, under setting [1], the AC50 was 23.1 µM [falling, single point]. Moreover, the AC50 under setting [2] was 29.1 µM [falling, single point].

For the compound `CCn1c(SCC(=O)Nc2ccc(F)cc2)nc2ccccc2c1=O`, the cell number change amounted to 22%. Also, under setting [1], the AC50 is 0.164 µM [rising, full curve, poor fit]. The AC50 under setting [2] is 4.11 µM [rising, full curve].

Regarding `Cc1cc(NC(=O)CCN2C(=O)c3ccccc3C2=O)no1`, the cell number change was -6.23%. Also, the concentration at half-maximal activity (AC50) under setting [1] is 0.116 µM [falling, full curve, poor fit].

For `Cc1nc(Cc2nnc(SCC(=O)N3CCN(c4ccc(F)cc4)CC3)o2)cs1`, the cell number change is -9.97%.

`CC(C)c1ccccc1NC(=O)c1ccc(CN(c2ccccc2)S(=O)(=O)c2ccccc2)cc1`: the cell number change was -25.8%. Besides, the AC50 under setting [1] is 0.00411 µM [rising, full curve, poor fit].

For the compound `COc1ccccc1CN(C)CC(=O)Nc1cccc2ccccc12`, the cell number change is -40.5%. Further, the half-maximal activity concentration (AC50) under setting [1] was 20.6 µM [falling, partial curve].

In the case of `COc1cnn(-c2ccccc2)c(=O)c1OC`, the cell number change was -2.46%. Moreover, under setting [2], the half-maximal activity concentration (AC50) was 3.26 µM [rising, single point].

Consider `COc1c2ccccc2nc2ccccc12`, for which the cell number change stood at 1.69%. Further, the AC50 under setting [2] was 29.1 µM [rising, single point].

Consider `COC(=O)c1ccc(Cn2cc(C(F)(F)F)cc([N+](=O)[O-])c2=O)cc1`, for which the cell number change worked out at 19.8%. Further, under setting [2], the half-maximal activity concentration (AC50) is 6.51 µM [rising, single point].

For `CCCCC(C(=O)NC1CCCC1)N(Cc1ccccc1)C(=O)c1snc(C(N)=O)c1N` (stereo not drawn), the cell number change is -28.9%. Moreover, under setting [2], the concentration at half-maximal activity (AC50) was 6.31 µM [falling, single point].

Regarding `Cc1ccccc1OCC(=O)NCCCNC(=O)c1cccnc1`, the cell number change was found to be 7.92%.

Turning to `CC(=O)NC1C(OCCOc2ccc(Cl)cc2Cl)OC(COC(C)=O)C(OC(C)=O)C1OC(C)=O` (stereo not drawn), the cell number change stood at 1.13%. In addition, under setting [2], the AC50 was 0.58 µM [rising, single point].

By AC50 is commonly meant the midpoint of the concentration-response curve, whichever way the signal moves. The low end stands for greater potency, the high end for weaker potency.

The values are drawn from PubChem BioAssay AID2685 (National Center for Advancing Translational Sciences (NCATS), 2010).
